According to publication PMC7407311:

Columns and labels:
[1] = molecular target: T1, chemokine (C-X-C motif) ligand 14 (CXCL14), endogenous in hESCs (human (endogenous in hESCs)) (UniProt O95715); test: co-IP; hESC lysate (1 mg; 20 mM Tris, 1% Triton X-100, 150 mM NaCl) with 1 ug antibody against IGF-1R or CXCL14 or isotype IgG overnight at 4 °C, Protein G magnetic beads, washed 5 times with PBST, Western blot
T1 sequence: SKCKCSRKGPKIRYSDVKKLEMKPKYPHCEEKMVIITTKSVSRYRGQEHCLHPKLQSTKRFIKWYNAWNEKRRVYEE

[2] = molecular target: insulin-like growth factor 1 receptor (IGF-1R), endogenous in hESCs (human (endogenous in hESCs)); test: as above
[3] = molecular target: insulin-like growth factor 1 receptor (IGF-1R), endogenous in hESCs (human (endogenous in hESCs)); test: proximity ligation; Duolink PLA on fixed hESCs, endogenous CXCL14 and IGF-1R (Ctrl), isotype IgG as negative control
[4] = molecular target: insulin-like growth factor 1 receptor (IGF-1R), endogenous in hESCs (human (endogenous in hESCs)); test: proximity ligation; Duolink PLA on fixed hESCs treated with exogenous CXCL14 (+CXCL14); only the binder purified

binding [1]: binds
Molecule: insulin-like growth factor 1 receptor (IGF-1R), endogenous in hESCs (human (endogenous in hESCs))

binding [2]: binds | binding [3]: binds
B1: chemokine (C-X-C motif) ligand 14 (CXCL14), endogenous in hESCs (ligand, UniProt O95715 35-111)
chain: SKCKCSRKGPKIRYSDVKKLEMKPKYPHCEEKMVIITTKSVSRYRGQEHCLHPKLQSTKRFIKWYNAWNEKRRVYEE

binding [4]: binds
B2: recombinant CXCL14 protein (PeproTech) (ligand, UniProt O95715 35-111)
chain: SKCKCSRKGPKIRYSDVKKLEMKPKYPHCEEKMVIITTKSVSRYRGQEHCLHPKLQSTKRFIKWYNAWNEKRRVYEE

No constants are given. Whether binding was seen depends on the method and setting. In cells and extracts the contact can be indirect. A result given as binding can be weak or reduced; the word gives no strength. One block for each molecule: values may come before it.
